Measurements taken from paper PMC4873738, “A Small Molecule Inhibitor of PDK1/PLCγ1 Interaction Blocks Breast and Melanoma Cancer Cell Invasion” (Scientific Reports, 2016).
These are yes or no findings as the source states them, for the method shown. Binding seen in cells or lysates may run through a third protein. Some results given as binding are weak or reduced against the parent protein; the word gives no strength.

T1: phospholipase Cγ1 (PLCγ1), overexpressed from PRK5-PLCγ1 (UniProt P19174)
T1 sequence: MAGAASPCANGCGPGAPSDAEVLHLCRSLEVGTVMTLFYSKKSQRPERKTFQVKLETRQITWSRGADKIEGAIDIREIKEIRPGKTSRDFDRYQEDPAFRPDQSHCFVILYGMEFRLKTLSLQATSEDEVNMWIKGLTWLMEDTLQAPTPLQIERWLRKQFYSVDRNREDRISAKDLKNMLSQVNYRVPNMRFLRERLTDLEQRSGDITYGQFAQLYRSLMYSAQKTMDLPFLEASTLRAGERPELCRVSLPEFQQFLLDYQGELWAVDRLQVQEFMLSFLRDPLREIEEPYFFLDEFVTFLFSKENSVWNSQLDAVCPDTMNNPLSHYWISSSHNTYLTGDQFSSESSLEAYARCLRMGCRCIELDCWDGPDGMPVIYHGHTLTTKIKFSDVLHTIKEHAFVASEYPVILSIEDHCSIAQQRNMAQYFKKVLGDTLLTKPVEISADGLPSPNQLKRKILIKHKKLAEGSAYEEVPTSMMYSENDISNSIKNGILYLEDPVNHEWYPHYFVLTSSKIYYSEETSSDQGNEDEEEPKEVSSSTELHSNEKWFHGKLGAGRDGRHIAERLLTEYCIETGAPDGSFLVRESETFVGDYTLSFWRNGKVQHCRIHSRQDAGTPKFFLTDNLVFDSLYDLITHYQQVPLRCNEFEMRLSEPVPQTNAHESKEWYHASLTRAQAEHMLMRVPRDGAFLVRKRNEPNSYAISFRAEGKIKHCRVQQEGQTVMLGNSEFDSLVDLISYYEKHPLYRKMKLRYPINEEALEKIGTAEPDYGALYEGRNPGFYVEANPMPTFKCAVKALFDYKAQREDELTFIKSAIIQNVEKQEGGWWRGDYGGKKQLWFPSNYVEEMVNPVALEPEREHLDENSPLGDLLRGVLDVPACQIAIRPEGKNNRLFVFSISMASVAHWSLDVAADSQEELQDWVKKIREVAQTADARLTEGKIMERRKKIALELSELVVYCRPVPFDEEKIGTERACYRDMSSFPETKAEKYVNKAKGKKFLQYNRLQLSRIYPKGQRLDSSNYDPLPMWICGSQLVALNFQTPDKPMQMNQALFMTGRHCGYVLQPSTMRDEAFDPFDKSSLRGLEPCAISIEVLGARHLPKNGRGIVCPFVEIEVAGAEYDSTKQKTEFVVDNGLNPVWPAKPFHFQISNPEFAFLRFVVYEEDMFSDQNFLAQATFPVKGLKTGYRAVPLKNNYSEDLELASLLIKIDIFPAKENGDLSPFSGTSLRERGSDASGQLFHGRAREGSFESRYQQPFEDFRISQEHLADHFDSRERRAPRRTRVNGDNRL

T2: phospholipase Cγ1 (PLCγ1), endogenous (human (endogenous in MDA-MB-231)) (UniProt P19174)
T2 sequence: T1 sequence

B1: 3-phosphoinositide-dependent protein kinase 1 (PDK1), overexpressed from pOZ-PDK1 (enzyme, UniProt O15530 1-556)
chain: MARTTSQLYDAVPIQSSVVLCSCPSPSMVRTQTESSTPPGIPGGSRQGPAMDGTAAEPRPGAGSLQHAQPPPQPRKKRPEDFKFGKILGEGSFSTVVLARELATSREYAIKILEKRHIIKENKVPYVTRERDVMSRLDHPFFVKLYFTFQDDEKLYFGLSYAKNGELLKYIRKIGSFDETCTRFYTAEIVSALEYLHGKGIIHRDLKPENILLNEDMHIQITDFGTAKVLSPESKQARANSFVGTAQYVSPELLTEKSACKSSDLWALGCIIYQLVAGLPPFRAGNEYLIFQKIIKLEYDFPEKFFPKARDLVEKLLVLDATKRLGCEEMEGYGPLKAHPFFESVTWENLHQQTPPKLTAYLPAMSEDDEDCYGNYDNLLSQFGCMQVSSSSSSHSLSASDTGLPQRSGSNIEQYIHDLDSNSFELDLQFSEDEKRLLLEKQAGGNPWHQFVENNLILKMGPVDKRKGLFARRRQLLLTEGPHLYYVDPVNKVLKGEIPWSQELRPEAKNFKTFFVHTPNRTYYLMDPSGNAHKWCRKIQEVWRQRYQSHPDAAVQ
B2: 3-phosphoinositide-dependent protein kinase 1 (PDK1), endogenous (enzyme, UniProt O15530 1-556)
chain: B1 chain

Experiments:
[1] = target: T1, phospholipase Cγ1 (PLCγ1), overexpressed from PRK5-PLCγ1; assay: FRET or BRET; steady-state FRET by acceptor photo-bleaching in fixed MDA-MB-231 co-expressing PLCγ1 and PDK1; stained with anti-PLCγ1 and anti-PDK1 antibodies and Alexa-488 and Alexa-555 secondary antibodies; EGF 50 ng/ml for 3 min; measured at protrusions near the plasma membrane
[2] = target: T1, phospholipase Cγ1 (PLCγ1), overexpressed from PRK5-PLCγ1; assay: condition: only cells treated with 50 μM 2-O-Bn-InsP5; FRET or BRET; as a1, but cells treated with 50 μM 2-O-Bn-InsP5 for 30 minutes before and during EGF stimulation
[3] = target: T2, phospholipase Cγ1 (PLCγ1), endogenous (human (endogenous in MDA-MB-231)); assay: co-IP; endogenous proteins from MDA-MB-231 lysate (50 mM Tris pH 8.0, 50 mM KCl, 1% NP-40); anti-PLCγ1 antibody cross-linked to protein G Dynabeads, overnight at 4 °C; blot with anti-PDK1; cells stimulated with EGF 50 ng/ml, untreated or treated with 50 μM 2-O-Bn-InsP5 for one hour

Binder | binding [1] | binding [2] | binding [3]
B1 | binds | no binding | 
B2 |  |  | binds
